Source: paper PMC3878228 (BMC Plant Biology, 2013)

B1: TH-ProCLV3: CLV3 proprotein without signal peptide, N-terminal Trx and His tags, produced in E. coli, 23.8 kD (protein, UniProt Q9XF04 22-96, looked up)
pro-form: SDLTQAHAHVQGLSNRKMMMMKMESEWVGANGEAEKAKTKGLGLHEELRTVPSGPDPLHHHVNPPRQPRNNFQLP
modifications: pro-form N-terminal thioredoxin and His tags
notes: CLV3 proprotein without signal peptide, N-terminal Trx and His tags, produced in E. coli, 23.8 kD
B2: TH-ProCLV3Leu69Ala: TH-ProCLV3 fusion protein with Leu69Ala substitution, produced in E. coli (protein, UniProt Q9XF04 22-96, looked up, variant L69A)
pro-form: B1 pro-form with L48A
modifications: pro-form N-terminal thioredoxin and His tags
notes: TH-ProCLV3 fusion protein with Leu69Ala substitution, produced in E. coli

Columns and labels:
[1] = tested on: enzymes secreted from intact Arabidopsis seedlings; test: In vitro cleavage assay with Ler seedlings, MALDI-Tof MS; conditions: for Internal cleavage after incubation with Ler seedlings / Removal of terminal residues after incubation with Ler seedlings: 10 μM peptide, 5 seedlings in 200 μL medium, 22°C, 3-d incubation, MALDI-Tof MS
[2] = tested on: enzymes released by Arabidopsis seedlings; test: In vitro cleavage assay of fusion proteins with seedlings, Q-Tof MS/MS

Molecule | Internal cleavage after incubation with Ler seedlings [1] | Removal of terminal residues after incubation with Ler seedlings [1] | also measured
LHEELRTVPSGPDPLHH [LHEEL-CLV3p17, CLV3p12 with additional 5 N-terminal residues] | cleavages before Arg70 and Thr71 | gradual removal of terminal residues | 
EELRTVPSGPDPLHH [EEL-CLV3p15, CLV3p12 with additional 3 N-terminal residues] | No internal cleavages | removal of the C-terminal His residue was observed, but not N-terminal residues | 
FNESMRLSPGGPDPRHH [FNESM-CLE1p17, synthesized CLE1 peptide with 5 N-terminal flanking residues] | an internal cleavage was detected between Met (M) and Arg (R) |  | 
RLSPGGPDPRHH [CLE1p12, synthesized CLE1 peptide with 0 N-terminal flanking residues] |  | gradual trimmings of terminal residues | 
MRLSPGGPDPRHH [M-CLE1p13, synthesized CLE1 peptide with 1 N-terminal flanking residue] |  | gradual trimmings of terminal residues | 
RTVPSGPDPLHH [CLV3p12, chemically synthesized 12-AA CLV3 peptide corresponding to the CLE motif] | No internal cleavages | gradual removal of residues from both N- and C-termini | 
B1 |  |  | Cleavage of fusion protein after inoculation with Arabidopsis seedlings ([1]; 10 μM fusion protein, 24 hr, releasing CLV3p12 and CLV3p13): efficiently cleaved; Internal cleavage sites of the fusion protein ([2]; co-cultivation with Ler seedlings, 24 hr, Q-Tof MS/MS, SEQUEST): before Met39 and before Arg70
B2 |  |  | Peptide fragment profile released from fusion protein ([2]; co-cultivation with wildtype seedlings, Q-Tof MS/MS of medium samples): no peptide fragment with C-terminal Ala69 was detected

Where a chain is given by its changes, count along the chain named.
